No constants are given. Whether binding was seen depends on the method and setting. In cells and extracts the contact can be indirect. Here binding means that the protein was enriched with, or labelled near, the bait; the list need not be complete. One block for each binder: values may come before it.
Molecular target: T1, IgLON5 (mouse (endogenous in primary hippocampal neurons)) (UniProt Q8HW98)
T1 sequence: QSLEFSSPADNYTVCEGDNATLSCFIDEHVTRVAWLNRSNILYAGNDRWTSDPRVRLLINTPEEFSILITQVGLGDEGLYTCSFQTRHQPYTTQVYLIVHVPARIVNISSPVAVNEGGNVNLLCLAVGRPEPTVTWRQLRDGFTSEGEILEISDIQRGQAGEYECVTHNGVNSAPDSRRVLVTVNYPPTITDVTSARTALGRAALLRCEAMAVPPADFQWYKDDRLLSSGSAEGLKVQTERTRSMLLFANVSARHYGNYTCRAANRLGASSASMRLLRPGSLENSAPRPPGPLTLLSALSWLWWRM
Experiment: proximity labelling; live primary mouse hippocampal neurons (DIV12) treated with α-IgLON5#1 or pCtrl (1 μg/ml, 60 min, 37°C), fixed with 4% PFA, HRP-conjugated α-human secondary antibody, 250 μM biotin-tyramide and 50 μM H2O2 for 1 min; streptavidin bead pulldown and MS; enrichment of α-IgLON5#1 against pCtrl

binding: binds
B1: Cntn6 (protein, UniProt Q9JMB8 20-999)
chain: EGRFSRPIFIQEPQDVIFPLDLSRSEIILTCTANGYPSPHYRWKQNGTDIDFGMTYHYRLDGGSLAISSPRTDQDIGIYQCLATNPVGTILSRKAKLQFAYIEDFETKTRSTVSVREGQGVVLLCGPPPHFGELSYAWTFNDSPLYVQEDKRRFVSQDTGNLYFAKVEPSDVGNYTCFVTNKEAHRSVQGPPTPLVLRTDGVMGEYEPKIEVRFPETIQAAKDSSIKLECFALGNPVPDISWKRLDGSPMPGKIKYSKSQAILEIPKFQQEDEGFYECIAGNLRGRNLAKGQLIFYAPPEWEQKIQNTYLSIYDSLFWECKASGNPNPSYTWLKNGQRLNTEERIQIENGTLIITMLNISDSGIYQCAAENKYQTIYANAELRVLASAPDFSKNPIKKISVVQVGGDISIECKPNAFPKASISWKRGTENLKQSKRVLFLEDGSLKICNVTRADAGSYTCVATNQFGNGKSSGGLVVKERTIITVPPSKMDVTVGESIVLPCQVSHDPTMEVLFVWYFNGDIIDLKKGVAHFERIGGESVGDLMIRNIQLGHSGKYLCTVQTTLERLSAVADIIVRGPPGPPEDVKVEHISSTTSQLSWRPGPDNNSPIQIFTIQTRTPFSVGWQAVATVPEILNGQTYNATVVGLSPWVEYEFRVVAGNNIGIGEPSKPSELLRTKASVPNVAPGNINGGGGSRSELVITWEAIPEELQNGEGFGYIVMFRPVGTTAWMKERVALVESSKFIYRNESIMPLSPFEVKVGVYNNEGEGSLSTVTIVYSGEDEPQLAPRGTSVQSFSASEMEVSWNAIAWNRNTGRVLGYEVLYWTDNSKESMIGKIRVSGNVTTKNITGLRANTIYFASVRAYNTAGTGPSSLPVNVTTKKSPPSQPPANIAWKLSNSKLCLNWEHVKTMENESEVLGYKILYRQNRQSKTHILETNNTSAELLVPFEEDYLIEIRTVSDGGDGSSSEEIRIPKMSSLSS

binding: binds
B2: NTM (=IgLON2) (protein, UniProt Q99PJ0 34-321)
chain: GDATFPKAMDNVTVRQGESATLRCTIDNRVTRVAWLNRSTILYAGNDKWCLDPRVVLLSNTQTQYSIEIQNVDVYDEGPYTCSVQTDNHPKTSRVHLIVQVSPKIVEISSDISINEGNNISLTCIATGRPEPTVTWRHISPKAVGFVSEDEYLEIQGITREQSGEYECSASNDVAAPVVRRVKVTVNYPPYISEAKGTGVPVGQKGTLQCEASAVPSAEFQWFKDDKRLVEGKKGVKVENRPFLSKLTFFNVSEHDYGNYTCVASNKLGHTNASIMLFGPGAVSEVNN
